PubChem BioAssay AID686943 – Drosophila RNAi Screening Center – 2013

- Purpose: 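Fly genes whose loss alters ERK activation after insulin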 (primary screen)
- Cells: Drosophila S2R+ haemocyte-like cells expressing YFP-tagged ERK (Rolled)
- Reagents: long dsRNA against Drosophila genes
- Challenge: insulin stimulation versus unstimulated cells; dose and duration not given
- Read-out: 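Per-plate z-scores of phospho-ERK immunostaining normalised to YFP-tagged ERK, measured with and without insulin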
- Direction: replicate 1, z-score of dpERK with insulin and replicate 2, z-score of dpERK with insulin: higher = more active ERK per ERK-YFP after insulin
The deposit covers about 23,000 reagents; below is a random part of those with a known target gene and a result. 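Extra replicates exist only for a retested subset of genes; insulin dose and duration not given; both raised and lowered dpERK matter.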 The numbers tell different reagents against one gene apart. Further read-outs or replicates are left out here. Reagent sequences are not shown. The record does not give: the amount of reagent, the time to read-out.

dgt4 gave replicate 1, z-score of dpERK with insulin 2.38; replicate 2, z-score of dpERK with insulin 0.32.
Depletion of PAPLA1 #1 came out at: replicate 1, z-score of dpERK with insulin -0.26; replicate 2, z-score of dpERK with insulin -0.31.
With knock-down of PAPLA1 #2, the record shows replicate 1, z-score of dpERK with insulin 0.14; replicate 2, z-score of dpERK with insulin -1.43.
trk scored replicate 1, z-score of dpERK with insulin 0.04; replicate 2, z-score of dpERK with insulin 0.56.
Silencing of unc-13 #1 gave: replicate 1, z-score of dpERK with insulin -0.11; replicate 2, z-score of dpERK with insulin 0.04.
unc-13 #2 showed replicate 1, z-score of dpERK with insulin 0.13; replicate 2, z-score of dpERK with insulin 0.53.
Against unc-13 #3, the values are replicate 1, z-score of dpERK with insulin -0.21; replicate 2, z-score of dpERK with insulin -0.2.
With knock-down of Atf3 the results were replicate 1, z-score of dpERK with insulin -2.22; replicate 2, z-score of dpERK with insulin -1.23.
After knock-down of CG32091 #1, the record shows replicate 1, z-score of dpERK with insulin 1.22; replicate 2, z-score of dpERK with insulin 0.2.
Silencing of CG32091 #2 resulted in: replicate 1, z-score of dpERK with insulin 0.15; replicate 2, z-score of dpERK with insulin 0.09.
Cdep #1 gave replicate 1, z-score of dpERK with insulin -1.53; replicate 2, z-score of dpERK with insulin -1.28.
Cdep #2 showed replicate 1, z-score of dpERK with insulin -1.13; replicate 2, z-score of dpERK with insulin -1.04.
Cdep #3 scored replicate 1, z-score of dpERK with insulin 0.44; replicate 2, z-score of dpERK with insulin -0.38.
After knock-down of cype, the screen gave replicate 1, z-score of dpERK with insulin 0.7; replicate 2, z-score of dpERK with insulin -1.33.
With knock-down of CG33704, the record shows replicate 1, z-score of dpERK with insulin -0.54; replicate 2, z-score of dpERK with insulin -0.19.
For CG14990, the values are replicate 1, z-score of dpERK with insulin 0.07; replicate 2, z-score of dpERK with insulin 0.87.
Knock-down of CG14300 came out at: replicate 1, z-score of dpERK with insulin 0.06; replicate 2, z-score of dpERK with insulin -0.53.
Depletion of RabX2 came out at: replicate 1, z-score of dpERK with insulin -0.36; replicate 2, z-score of dpERK with insulin -1.31.
After knock-down of CG4679, the screen gave replicate 1, z-score of dpERK with insulin 0.27; replicate 2, z-score of dpERK with insulin 0.52.
Against lncRNA:CR41443, the values are replicate 1, z-score of dpERK with insulin 0.44; replicate 2, z-score of dpERK with insulin 0.28.
Against CG14664, the values are replicate 1, z-score of dpERK with insulin 0.24; replicate 2, z-score of dpERK with insulin 0.79.
Knock-down of CG34357 #1 resulted in: replicate 1, z-score of dpERK with insulin -0.24; replicate 2, z-score of dpERK with insulin 0.03.
After knock-down of CG34357 #2, the record shows replicate 1, z-score of dpERK with insulin -0.99; replicate 2, z-score of dpERK with insulin 0.38.
After knock-down of CG34357 #3, the record shows replicate 1, z-score of dpERK with insulin 0.58; replicate 2, z-score of dpERK with insulin 0.11.
Silencing of CG10063 resulted in: replicate 1, z-score of dpERK with insulin 0.36; replicate 2, z-score of dpERK with insulin 0.12.

A stretch from the list above, for reference:
CG14664: replicate 1, z-score of dpERK with insulin = 0.24; replicate 2, z-score of dpERK with insulin = 0.79
CG34357 #1: replicate 1, z-score of dpERK with insulin = -0.24; replicate 2, z-score of dpERK with insulin = 0.03
CG34357 #2: replicate 1, z-score of dpERK with insulin = -0.99; replicate 2, z-score of dpERK with insulin = 0.38
CG34357 #3: replicate 1, z-score of dpERK with insulin = 0.58; replicate 2, z-score of dpERK with insulin = 0.11
CG10063: replicate 1, z-score of dpERK with insulin = 0.36; replicate 2, z-score of dpERK with insulin = 0.12

Continued.
RluA-1 #1 showed replicate 1, z-score of dpERK with insulin -0.47; replicate 2, z-score of dpERK with insulin 0.84.
Knock-down of RluA-1 #2 came out at: replicate 1, z-score of dpERK with insulin 0.51; replicate 2, z-score of dpERK with insulin 0.7.
After knock-down of TM4SF, the record shows replicate 1, z-score of dpERK with insulin 0.37; replicate 2, z-score of dpERK with insulin -0.68.
CG15283 scored replicate 1, z-score of dpERK with insulin 0.16; replicate 2, z-score of dpERK with insulin -0.05.
sip2 scored replicate 1, z-score of dpERK with insulin -0.14; replicate 2, z-score of dpERK with insulin 0.58.
Silencing of kappaTry gave: replicate 1, z-score of dpERK with insulin 0.15; replicate 2, z-score of dpERK with insulin 0.25.
Nmnat scored replicate 1, z-score of dpERK with insulin 1.16; replicate 2, z-score of dpERK with insulin -0.2.
CG14070 scored replicate 1, z-score of dpERK with insulin 0.56; replicate 2, z-score of dpERK with insulin 0.26.
CG12877 gave replicate 1, z-score of dpERK with insulin 0.16; replicate 2, z-score of dpERK with insulin 0.04.
With knock-down of CG43755, the screen gave replicate 1, z-score of dpERK with insulin -0.96; replicate 2, z-score of dpERK with insulin 0.36.
COX6B showed replicate 1, z-score of dpERK with insulin -2.46; replicate 2, z-score of dpERK with insulin -1.12.
CG14882 showed replicate 1, z-score of dpERK with insulin 0.09; replicate 2, z-score of dpERK with insulin -0.11.
Knock-down of SLC5A11 came out at: replicate 1, z-score of dpERK with insulin 0.22; replicate 2, z-score of dpERK with insulin -0.06.
CG13653 scored replicate 1, z-score of dpERK with insulin 0.22; replicate 2, z-score of dpERK with insulin -0.1.
After knock-down of IKKepsilon, the screen gave replicate 1, z-score of dpERK with insulin -0.08; replicate 2, z-score of dpERK with insulin 0.42.
